From the supplement of paper PMC10735217
Where a name gives a salt, the structure may show the parent alone. This is one part of the list. This data set is noisy: repeats of one test often differ as much as different tests do.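 The human kidney-derived cells carry a stably integrated construct of eight TEAD-binding elements driving luciferase, read by luminescence in a drug-repurposing library screen. A compound counts as a hit when its signal is more than five robust Z scores above the plate mean.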

Tested on: HEK293A TEAD-LUC reporter
Assay: TEAD-luciferase reporter activity (YAP activation), robust Z score vs plate; higher = stronger YAP/TEAD activation
Details: 24 h

Row | Compound | TEAD-luciferase reporter activity (compound concentration: 200 nM) | TEAD-luciferase reporter activity (compound concentration: 10 uM) | TEAD-luciferase reporter activity (compound concentration: 2 uM)
1 | O=C(C1CN(c2ccccc2)C(=O)N1)N1CCCC1 (stereo unspecified) | inactive: 0.476 | inactive: 1.47 | 
2 | COc1ccc(CN2CCC(N3Cc4ccccc4C3=O)CC2)cc1 | inactive: 1.19 | inactive: 1.61 | 
3 | OC[C@H]1O[C@@H](Oc2cc3c(O)cc(O)cc3[o+]c2-c2ccc(O)c(O)c2)[C@H](O)[C@@H](O)[C@@H]1O [Cyanidin-3-glucoside] | inactive: 1.45 | inactive: -1.06 | inactive: -0.135
4 | CCC(C)(C)NC(=O)c1ccc(NC(C)=O)cc1 |  |  | inactive: -1.58
5 | CCC(C)(C)NC(=O)c1ccc(NC(C)=O)cc1 [NRTs, Centaur] | inactive: -0.104 | inactive: -1.44 | 
6 | COc1ccc(CCNCC(O)COc2ccc(OCC(C)=O)c3c2CCC(=O)N3)cc1OC (stereo unspecified) | inactive: -2.31 | inactive: 1.4 | inactive: -1.12
7 | CCOS(=O)(=O)c1cc(C(C)(C)C)cc2cc(C(C)(C)C)ccc12 | inactive: -0.291 | inactive: 0.709 | inactive: -0.432
8 | Cc1ccc(C(=O)N(CCCN)C(c2oc3cc(Cl)ccc3c(=O)c2Cc2ccccc2)C(C)C)cc1 (stereo unspecified) | inactive: 3.23 | inactive: -0.316 | inactive: 0.166
9 | Cc1onc(NS(=O)(=O)c2ccccc2-c2ccc(-c3ncco3)cc2CN(C)C(=O)CC(C)(C)C)c1C [Edonentan hydrate] | inactive: -0.62 | inactive: 0.321 | inactive: 0.771
10 | CC(=O)NC[C@H]1CN(c2ccc(N3CCOCC3)c(F)c2)C(=O)O1 [Linezolid] |  |  | inactive: -0.689
11 | CC(=O)NC[C@H]1CN(c2ccc(N3CCOCC3)c(F)c2)C(=O)O1 [linezolid] |  |  | inactive: -1.03
12 | CC(=O)NC[C@H]1CN(c2ccc(N3CCOCC3)c(F)c2)C(=O)O1 | inactive: -1.67 | inactive: 2.02 | 
13 | CCNC(=O)OC1CCN(c2nncc3cc(OC)c(OC)cc23)CC1 | inactive: -1.45 | inactive: 2.38 | inactive: -1.53
14 | COc1cc(/C=C/C(N)=O)cc(OC)c1OC | inactive: -0.155 | inactive: 2.57 | inactive: -1.82
15 | CCCc1ccc(NS(=O)(=O)Cc2ccccc2)c(=O)n1CC(=O)NCc1ccccc1OC | inactive: 0.226 | inactive: 0.327 | inactive: -1.31
16 | CC(C)CCCC(C)C1CCC2C3CCC4C[C@@H](N5CC(OS(C)(=O)=O)C5)CC[C@]4(C)C3CC[C@]12C (stereo partly specified) | inactive: -0.424 | inactive: 3.48 | inactive: 0.0269

Not a retest: an excerpt of the list.
Row | Compound | TEAD-luciferase reporter activity (compound concentration: 200 nM) | TEAD-luciferase reporter activity (compound concentration: 10 uM) | TEAD-luciferase reporter activity (compound concentration: 2 uM)
6 | COc1ccc(CCNCC(O)COc2ccc(OCC(C)=O)c3c2CCC(=O)N3)cc1OC (stereo unspecified) | inactive: -2.31 | inactive: 1.4 | inactive: -1.12
7 | CCOS(=O)(=O)c1cc(C(C)(C)C)cc2cc(C(C)(C)C)ccc12 | inactive: -0.291 | inactive: 0.709 | inactive: -0.432

(list continues)

Row | Compound | TEAD-luciferase reporter activity (compound concentration: 200 nM) | TEAD-luciferase reporter activity (compound concentration: 10 uM) | TEAD-luciferase reporter activity (compound concentration: 2 uM)
17 | C=CCCCCCSC(=N)N | inactive: -1.81 | inactive: -1 | inactive: 1.39
18 | CSc1ccc(Oc2ccc(S(N)(=O)=O)cc2CN(C)C)cc1 | inactive: -0.202 | inactive: 1.26 | inactive: -0.504
19 | Cc1cc(Cl)cc2nc(N3CCCNCC3)oc12 | inactive: -0.365 | inactive: 1.79 | inactive: -1.35
20 | CCN(CC)CCOCCOC(=O)C(CC)(CC)c1ccccc1 |  |  | inactive: -0.673
21 | CCN(CC)CCOCCOC(=O)C(CC)(CC)c1ccccc1 [Oxeladin citrate salt] | inactive: 0.0196 | inactive: 3.91 | 
22 | Cn1ncc(Cl)c1-c1cc(C(=O)N[C@H](CN)Cc2cccc(F)c2)sc1Cl [Afuresertib] | inactive: 2.92 | inactive: 4.79 | inactive: 1.69
23 | Cn1c(COc2ccc(CC3SC(=O)NC3=O)cc2)nc2ccccc2c1=O (stereo unspecified) [Balaglitazone] | inactive: -0.408 | inactive: 0.944 | inactive: -0.834
24 | c1ccc(-c2ccc3ncnc(Nc4ccc(N5CCOCC5)cc4)c3c2)cc1 | inactive: 0.175 | inactive: -0.686 | inactive: -1.13
25 | COc1cc2c(cc1OC(C)C)[C@H](c1ccc(Cl)cc1)N(c1ccc(N(C)C[C@H]3CC[C@H](N4CCN(C)C(=O)C4)CC3)cc1)C(=O)C2 | inactive: -1.1 | inactive: -0.297 | inactive: -1.69
26 | CN(C)C(=N)NC(=N)N [metformin, buccal, Generex] | inactive: -0.988 | inactive: 0.563 | 
27 | CN(C)C(=N)NC(=N)N [metformin, buccal] |  |  | inactive: 0.52
28 | C#CCOc1ccccc1OCC(O)CNC(C)(C)C (stereo unspecified) | inactive: -0.701 | inactive: -1.06 | inactive: -0.71
29 | CC(=O)c1cc(Nc2cc(C)nc(N)n2)cc(C(C)=O)c1 | inactive: -1.62 | inactive: 2.75 | inactive: -0.673
30 | CN(C)CC1CCC(CNC(=N)c2ccc(CC(NC(=O)C(Cc3ccccc3)NS(=O)(=O)c3ccc4ccccc4c3)C(=O)N3CCCC3)cc2)CC1 (stereo unspecified) | inactive: 0.417 | inactive: 0.00759 | 
31 | CC(C)c1cc2[nH]c(=O)n(NS(C)(=O)=O)c(=O)c2cc1-c1ccnn1C [Selurampanel] | inactive: -1.69 | inactive: 0.207 | inactive: 0.537
